Experimental data published in the supplement of paper PMC7666118.
The list shows a part of the results.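 How the source made its calls: active = dose-dependent thermal stabilisation significant by F-test of dose-response against flat model at 10% FDR; inactive = not significant.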

Sequences of proteins named here, by UniProt entry; tags and fusion partners are left off. A change or cut given only in a name is not applied to a line headed by its entry.
UniProt Q9Y4E5: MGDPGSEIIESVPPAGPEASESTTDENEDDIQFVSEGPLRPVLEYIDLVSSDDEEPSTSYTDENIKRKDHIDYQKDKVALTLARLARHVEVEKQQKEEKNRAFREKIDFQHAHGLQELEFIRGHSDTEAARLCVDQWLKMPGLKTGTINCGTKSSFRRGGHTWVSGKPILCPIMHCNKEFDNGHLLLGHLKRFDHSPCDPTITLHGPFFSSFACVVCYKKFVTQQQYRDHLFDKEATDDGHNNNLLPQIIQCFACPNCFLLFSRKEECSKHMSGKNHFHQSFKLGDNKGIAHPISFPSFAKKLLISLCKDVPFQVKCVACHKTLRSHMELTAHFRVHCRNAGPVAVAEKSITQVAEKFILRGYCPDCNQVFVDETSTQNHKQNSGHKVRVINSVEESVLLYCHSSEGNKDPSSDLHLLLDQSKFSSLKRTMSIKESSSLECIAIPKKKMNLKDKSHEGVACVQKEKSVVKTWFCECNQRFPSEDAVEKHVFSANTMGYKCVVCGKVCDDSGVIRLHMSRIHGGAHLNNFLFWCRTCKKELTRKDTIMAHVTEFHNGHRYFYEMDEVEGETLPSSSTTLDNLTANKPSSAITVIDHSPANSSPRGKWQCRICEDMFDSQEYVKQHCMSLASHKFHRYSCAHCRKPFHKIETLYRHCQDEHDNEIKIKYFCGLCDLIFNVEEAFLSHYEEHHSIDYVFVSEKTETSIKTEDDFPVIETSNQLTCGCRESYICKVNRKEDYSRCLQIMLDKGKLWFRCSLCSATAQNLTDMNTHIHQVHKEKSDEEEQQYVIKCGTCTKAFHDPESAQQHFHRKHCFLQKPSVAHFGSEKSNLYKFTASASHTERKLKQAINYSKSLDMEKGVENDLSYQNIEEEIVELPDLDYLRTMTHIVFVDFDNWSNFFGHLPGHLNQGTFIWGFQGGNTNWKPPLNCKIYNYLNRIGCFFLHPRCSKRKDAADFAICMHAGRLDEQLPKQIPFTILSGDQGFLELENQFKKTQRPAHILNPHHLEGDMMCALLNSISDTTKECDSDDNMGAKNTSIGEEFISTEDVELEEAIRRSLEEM
UniProt Q9UBW7: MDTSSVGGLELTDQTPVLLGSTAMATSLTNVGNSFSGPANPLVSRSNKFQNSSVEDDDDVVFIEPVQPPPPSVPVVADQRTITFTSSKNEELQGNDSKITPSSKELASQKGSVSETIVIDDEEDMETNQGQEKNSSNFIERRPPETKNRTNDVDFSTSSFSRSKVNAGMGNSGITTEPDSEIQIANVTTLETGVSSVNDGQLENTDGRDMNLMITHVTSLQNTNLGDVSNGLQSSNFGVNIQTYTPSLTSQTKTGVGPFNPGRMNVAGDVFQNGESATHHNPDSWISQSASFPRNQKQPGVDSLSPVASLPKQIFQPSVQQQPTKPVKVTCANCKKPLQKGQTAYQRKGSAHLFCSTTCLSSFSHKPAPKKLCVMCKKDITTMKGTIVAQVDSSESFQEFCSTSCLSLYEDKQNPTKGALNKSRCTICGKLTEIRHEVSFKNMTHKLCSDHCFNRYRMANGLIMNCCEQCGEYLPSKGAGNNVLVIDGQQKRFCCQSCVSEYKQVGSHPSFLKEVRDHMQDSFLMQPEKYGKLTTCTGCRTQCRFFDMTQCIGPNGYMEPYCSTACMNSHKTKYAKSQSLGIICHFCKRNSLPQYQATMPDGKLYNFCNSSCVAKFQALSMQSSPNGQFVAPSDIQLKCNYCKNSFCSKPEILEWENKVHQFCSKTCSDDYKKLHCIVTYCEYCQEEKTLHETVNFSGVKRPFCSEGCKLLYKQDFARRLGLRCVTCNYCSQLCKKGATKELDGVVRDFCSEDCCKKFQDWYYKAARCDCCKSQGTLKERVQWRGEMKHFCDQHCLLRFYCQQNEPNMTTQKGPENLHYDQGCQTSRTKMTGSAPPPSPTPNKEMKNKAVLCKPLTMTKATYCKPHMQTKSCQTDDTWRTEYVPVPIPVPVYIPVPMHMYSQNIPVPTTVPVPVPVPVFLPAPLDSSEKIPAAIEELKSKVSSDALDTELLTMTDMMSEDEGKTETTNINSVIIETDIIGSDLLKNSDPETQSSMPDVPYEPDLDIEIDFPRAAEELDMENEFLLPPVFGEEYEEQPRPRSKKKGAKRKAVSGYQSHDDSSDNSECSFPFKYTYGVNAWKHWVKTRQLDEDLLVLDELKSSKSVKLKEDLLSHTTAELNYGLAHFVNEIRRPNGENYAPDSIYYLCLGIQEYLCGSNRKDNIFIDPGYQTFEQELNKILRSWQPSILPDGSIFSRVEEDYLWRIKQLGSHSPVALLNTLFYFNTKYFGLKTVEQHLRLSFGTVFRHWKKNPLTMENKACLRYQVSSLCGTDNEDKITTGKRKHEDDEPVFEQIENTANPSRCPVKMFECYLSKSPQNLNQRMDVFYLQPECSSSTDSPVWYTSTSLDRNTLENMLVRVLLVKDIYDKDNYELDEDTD
UniProt Q15649: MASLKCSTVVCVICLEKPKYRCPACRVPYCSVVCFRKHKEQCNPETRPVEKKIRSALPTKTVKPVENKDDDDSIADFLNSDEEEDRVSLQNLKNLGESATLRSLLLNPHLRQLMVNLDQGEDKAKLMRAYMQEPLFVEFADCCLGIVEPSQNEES
UniProt Q9C0D3: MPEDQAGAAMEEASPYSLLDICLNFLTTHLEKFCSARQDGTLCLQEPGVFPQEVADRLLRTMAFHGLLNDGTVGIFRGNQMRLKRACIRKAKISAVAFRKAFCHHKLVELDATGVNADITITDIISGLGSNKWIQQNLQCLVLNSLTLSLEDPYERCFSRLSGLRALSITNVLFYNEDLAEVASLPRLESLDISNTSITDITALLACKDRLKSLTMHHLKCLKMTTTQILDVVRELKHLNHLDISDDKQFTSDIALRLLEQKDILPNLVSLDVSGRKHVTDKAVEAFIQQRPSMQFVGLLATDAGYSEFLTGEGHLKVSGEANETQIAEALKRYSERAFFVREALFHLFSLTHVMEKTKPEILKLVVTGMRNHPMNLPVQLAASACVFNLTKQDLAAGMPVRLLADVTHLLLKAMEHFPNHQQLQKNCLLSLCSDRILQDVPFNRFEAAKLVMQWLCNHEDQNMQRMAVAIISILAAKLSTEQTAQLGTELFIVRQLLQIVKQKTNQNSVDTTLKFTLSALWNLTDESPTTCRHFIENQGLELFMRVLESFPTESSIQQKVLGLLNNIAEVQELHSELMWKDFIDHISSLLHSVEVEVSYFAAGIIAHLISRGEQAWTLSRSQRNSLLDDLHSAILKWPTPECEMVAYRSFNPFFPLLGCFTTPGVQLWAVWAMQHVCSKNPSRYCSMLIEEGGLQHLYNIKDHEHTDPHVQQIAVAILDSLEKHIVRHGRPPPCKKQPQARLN
UniProt Q8NAF0: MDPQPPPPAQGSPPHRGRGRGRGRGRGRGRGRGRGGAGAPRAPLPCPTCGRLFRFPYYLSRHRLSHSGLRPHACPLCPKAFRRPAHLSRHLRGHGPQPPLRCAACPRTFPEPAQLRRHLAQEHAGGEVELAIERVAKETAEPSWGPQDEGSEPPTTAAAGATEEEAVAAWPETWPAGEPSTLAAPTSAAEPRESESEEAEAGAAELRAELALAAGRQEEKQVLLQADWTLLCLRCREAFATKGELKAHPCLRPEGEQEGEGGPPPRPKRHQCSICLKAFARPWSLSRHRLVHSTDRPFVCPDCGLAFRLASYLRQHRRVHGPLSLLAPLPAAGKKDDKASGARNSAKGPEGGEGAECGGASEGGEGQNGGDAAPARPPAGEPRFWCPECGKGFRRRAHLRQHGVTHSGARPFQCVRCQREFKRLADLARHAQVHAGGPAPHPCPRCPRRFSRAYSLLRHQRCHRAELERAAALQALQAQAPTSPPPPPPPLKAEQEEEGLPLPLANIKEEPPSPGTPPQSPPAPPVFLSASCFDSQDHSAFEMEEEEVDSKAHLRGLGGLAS
UniProt Q86UK7: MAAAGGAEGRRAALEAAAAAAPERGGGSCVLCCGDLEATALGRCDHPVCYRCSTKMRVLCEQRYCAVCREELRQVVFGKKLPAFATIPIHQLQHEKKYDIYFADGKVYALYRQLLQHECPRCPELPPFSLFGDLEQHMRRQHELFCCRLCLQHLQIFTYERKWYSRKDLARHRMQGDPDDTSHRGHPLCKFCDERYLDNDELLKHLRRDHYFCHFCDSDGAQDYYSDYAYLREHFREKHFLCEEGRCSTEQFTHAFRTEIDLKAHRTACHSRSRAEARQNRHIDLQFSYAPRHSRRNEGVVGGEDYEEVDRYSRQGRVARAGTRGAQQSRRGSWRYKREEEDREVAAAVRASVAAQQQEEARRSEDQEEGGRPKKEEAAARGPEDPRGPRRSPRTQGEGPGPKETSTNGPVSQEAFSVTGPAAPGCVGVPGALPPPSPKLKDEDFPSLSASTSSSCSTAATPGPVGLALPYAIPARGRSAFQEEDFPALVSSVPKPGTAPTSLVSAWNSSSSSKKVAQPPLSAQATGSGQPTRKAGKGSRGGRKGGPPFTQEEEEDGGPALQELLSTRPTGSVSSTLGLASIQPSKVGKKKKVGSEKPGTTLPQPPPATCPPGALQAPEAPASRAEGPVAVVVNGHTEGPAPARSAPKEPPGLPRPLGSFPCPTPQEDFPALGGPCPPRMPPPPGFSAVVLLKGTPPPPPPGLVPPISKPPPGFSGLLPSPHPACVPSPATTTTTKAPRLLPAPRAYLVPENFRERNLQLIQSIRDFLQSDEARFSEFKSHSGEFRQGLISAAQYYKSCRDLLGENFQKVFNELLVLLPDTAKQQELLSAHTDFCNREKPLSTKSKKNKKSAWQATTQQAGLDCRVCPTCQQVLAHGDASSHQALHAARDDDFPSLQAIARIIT
UniProt Q7Z3T8: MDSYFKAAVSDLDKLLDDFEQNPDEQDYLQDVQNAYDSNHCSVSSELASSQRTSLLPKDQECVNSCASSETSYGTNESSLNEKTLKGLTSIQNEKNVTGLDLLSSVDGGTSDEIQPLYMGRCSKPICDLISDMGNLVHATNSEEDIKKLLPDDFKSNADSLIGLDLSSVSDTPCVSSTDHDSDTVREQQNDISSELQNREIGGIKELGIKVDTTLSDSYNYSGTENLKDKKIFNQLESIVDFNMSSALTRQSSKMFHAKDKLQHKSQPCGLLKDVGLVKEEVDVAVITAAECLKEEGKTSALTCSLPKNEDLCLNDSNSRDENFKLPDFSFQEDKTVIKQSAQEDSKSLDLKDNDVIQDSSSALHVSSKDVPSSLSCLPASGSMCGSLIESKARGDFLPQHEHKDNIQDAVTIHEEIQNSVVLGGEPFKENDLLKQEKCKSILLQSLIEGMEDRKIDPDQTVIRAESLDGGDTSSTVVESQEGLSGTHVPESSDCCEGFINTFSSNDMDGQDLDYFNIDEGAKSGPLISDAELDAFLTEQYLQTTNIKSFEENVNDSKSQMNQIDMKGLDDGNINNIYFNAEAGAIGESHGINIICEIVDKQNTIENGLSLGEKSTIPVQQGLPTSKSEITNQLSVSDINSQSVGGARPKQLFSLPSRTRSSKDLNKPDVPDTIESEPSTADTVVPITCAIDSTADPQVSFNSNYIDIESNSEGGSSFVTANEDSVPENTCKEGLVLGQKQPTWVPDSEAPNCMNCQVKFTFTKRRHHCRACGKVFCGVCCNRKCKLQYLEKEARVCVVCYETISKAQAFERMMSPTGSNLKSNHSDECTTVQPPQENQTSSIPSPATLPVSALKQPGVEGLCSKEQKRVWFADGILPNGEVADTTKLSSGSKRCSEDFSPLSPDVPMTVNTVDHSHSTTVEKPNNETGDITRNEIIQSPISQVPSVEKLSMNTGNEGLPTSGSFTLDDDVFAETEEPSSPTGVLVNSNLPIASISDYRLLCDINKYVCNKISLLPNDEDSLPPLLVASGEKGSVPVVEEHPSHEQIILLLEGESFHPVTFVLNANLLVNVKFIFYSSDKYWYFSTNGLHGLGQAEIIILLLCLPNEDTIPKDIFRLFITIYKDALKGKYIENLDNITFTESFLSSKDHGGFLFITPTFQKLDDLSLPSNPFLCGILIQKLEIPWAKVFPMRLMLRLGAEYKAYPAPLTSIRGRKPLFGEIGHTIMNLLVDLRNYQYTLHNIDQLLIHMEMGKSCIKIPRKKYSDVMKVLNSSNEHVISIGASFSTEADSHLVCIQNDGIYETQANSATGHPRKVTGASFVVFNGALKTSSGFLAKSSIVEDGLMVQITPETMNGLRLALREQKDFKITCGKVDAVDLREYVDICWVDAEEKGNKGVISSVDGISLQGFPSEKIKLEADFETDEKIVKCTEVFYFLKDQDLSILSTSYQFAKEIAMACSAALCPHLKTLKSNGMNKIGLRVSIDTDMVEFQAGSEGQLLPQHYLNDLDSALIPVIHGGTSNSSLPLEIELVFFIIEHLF
UniProt Q8ND25: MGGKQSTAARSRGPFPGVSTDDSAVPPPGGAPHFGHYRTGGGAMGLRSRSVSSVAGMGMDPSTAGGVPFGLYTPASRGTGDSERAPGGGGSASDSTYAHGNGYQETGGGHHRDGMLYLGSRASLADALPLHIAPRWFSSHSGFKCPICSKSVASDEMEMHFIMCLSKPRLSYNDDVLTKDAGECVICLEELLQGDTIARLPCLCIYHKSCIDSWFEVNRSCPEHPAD

compound: Nc1nc2c(ncn2[C@@H]2O[C@H](COP(=O)(O)OP(=O)(O)OP(=O)(O)O)[C@@H](O)[C@H]2O)c(=O)[nH]1; experiment: dose-dependent thermal stabilisation call (2D-TPP, DLPTP, 10% FDR) (binary (1 = stabilised)); higher = stabilised by the compound; settings: system: Jurkat gel-filtered lysate; concentration range 1-500 µM
Experimental: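 2D thermal proteome profiling in gel-filtered Jurkat E6.1 lysate (2 mg/ml) treated with NaGTP (0, 1, 10, 100, 500 uM) for 10 min at room temperature, then heated 3 min at one of 12 temperatures (42-63.9 C). Soluble protein was quantified by TMT10 MS. The value is the DLPTP call of the paper: dose-dependent thermal stabilisation over all temperatures at 10% FDR (F-test of a dose-response against a flat model); one experiment, one call per tested protein.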

dose-dependent thermal stabilisation call, active:
ZNF672 (UniProt Q499Z4) 1

dose-dependent thermal stabilisation call, inactive:
ZNF639 (UniProt Q9UID6) 0
ZNF207 (UniProt O43670) 0
ZNF609 (UniProt O15014) 0
ZNF286A (UniProt Q9HBT8) 0
ZNF451 (UniProt Q9Y4E5) 0
ZMYM2 (UniProt Q9UBW7) 0
ZNHIT3 (UniProt Q15649) 0
ZNF444 (UniProt Q8N0Y2) 0
ZYG11B (UniProt Q9C0D3) 0
ZNF148 (UniProt Q9UQR1) 0
ZHX3 (UniProt Q9H4I2) 0
ZFX (UniProt P17010) 0
ZFAND6 (UniProt Q6FIF0) 0
ZNF579 (UniProt Q8NAF0) 0
ZNF691 (UniProt Q5VV52) 0
ZGRF1 (UniProt Q86YA3) 0
ZSCAN21 (UniProt Q9Y5A6) 0
ZFR (UniProt Q96KR1) 0
ZHX2 (UniProt Q9Y6X8) 0
ZNF598 (UniProt Q86UK7) 0
ZMYM3 (UniProt Q14202) 0
ZNF143 (UniProt P52747) 0
ZNF219 (UniProt Q9P2Y4) 0
ZW10 (UniProt O43264) 0
ZNF696 (UniProt Q9H7X3) 0
ZFYVE16 (UniProt Q7Z3T8) 0
ZNF771 (UniProt Q7L3S4) 0
ZSCAN25 (UniProt Q6NSZ9) 0
ZNF286B (UniProt P0CG31) 0
ZWINT (UniProt O95229) 0
ZRANB2 (UniProt O95218) 0
ZMAT2 (UniProt Q96NC0) 0
ZGPAT (UniProt Q8N5A5) 0
ZNF638 (UniProt Q14966) 0
ZNF428 (UniProt Q96B54) 0
ZFP36L2 (UniProt P47974) 0
ZNF281 (UniProt Q9Y2X9) 0
ZNRF1 (UniProt Q8ND25) 0
ZNRF2 (UniProt Q8NHG8) 0

A stretch of the results above:
dose-dependent thermal stabilisation call, inactive:
ZNF691 (UniProt Q5VV52) 0
ZGRF1 (UniProt Q86YA3) 0
